The list shows a part of the results.
Key:
Test in all cases: log2 fold change, soluble protein after heating vs DMSO (PISA); higher = thermal stabilisation; K562 lysate, 10 uM; active = over 0.2 and 3.5 SD of the protein, either way, in both replicates (recomputed)
vemurafenib = compound: CCCS(=O)(=O)Nc1ccc(F)c(C(=O)c2c[nH]c3ncc(-c4ccc(Cl)cc4)cc23)c1F [vemurafenib]
Method in brief: (§1)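 Soluble protein was defined as the supernatant remaining after 21,000xg for 90 min, following pooling of heated aliquots and adjustment to 0.5% NP-40 at 4°C. Before that, crude K562 extract at 1 mg/mL protein in PBS pH 7.4 with 1 mM MgCl2 was treated with 10 μM compound for 30 min and heated for 3 min across 48°C-58°C. Quantification used TMTpro 16plex LC-MS/MS with channel sums equalised, and values are log-two fold changes in thermal stability relative to solvent controls from duplicates.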

Protein sequences, listed by entry. Tags and fused reporters are not part of them. Lines headed by an entry give the natural chain unless they say otherwise; changes in a name come on top.
UniProt Q96KR1: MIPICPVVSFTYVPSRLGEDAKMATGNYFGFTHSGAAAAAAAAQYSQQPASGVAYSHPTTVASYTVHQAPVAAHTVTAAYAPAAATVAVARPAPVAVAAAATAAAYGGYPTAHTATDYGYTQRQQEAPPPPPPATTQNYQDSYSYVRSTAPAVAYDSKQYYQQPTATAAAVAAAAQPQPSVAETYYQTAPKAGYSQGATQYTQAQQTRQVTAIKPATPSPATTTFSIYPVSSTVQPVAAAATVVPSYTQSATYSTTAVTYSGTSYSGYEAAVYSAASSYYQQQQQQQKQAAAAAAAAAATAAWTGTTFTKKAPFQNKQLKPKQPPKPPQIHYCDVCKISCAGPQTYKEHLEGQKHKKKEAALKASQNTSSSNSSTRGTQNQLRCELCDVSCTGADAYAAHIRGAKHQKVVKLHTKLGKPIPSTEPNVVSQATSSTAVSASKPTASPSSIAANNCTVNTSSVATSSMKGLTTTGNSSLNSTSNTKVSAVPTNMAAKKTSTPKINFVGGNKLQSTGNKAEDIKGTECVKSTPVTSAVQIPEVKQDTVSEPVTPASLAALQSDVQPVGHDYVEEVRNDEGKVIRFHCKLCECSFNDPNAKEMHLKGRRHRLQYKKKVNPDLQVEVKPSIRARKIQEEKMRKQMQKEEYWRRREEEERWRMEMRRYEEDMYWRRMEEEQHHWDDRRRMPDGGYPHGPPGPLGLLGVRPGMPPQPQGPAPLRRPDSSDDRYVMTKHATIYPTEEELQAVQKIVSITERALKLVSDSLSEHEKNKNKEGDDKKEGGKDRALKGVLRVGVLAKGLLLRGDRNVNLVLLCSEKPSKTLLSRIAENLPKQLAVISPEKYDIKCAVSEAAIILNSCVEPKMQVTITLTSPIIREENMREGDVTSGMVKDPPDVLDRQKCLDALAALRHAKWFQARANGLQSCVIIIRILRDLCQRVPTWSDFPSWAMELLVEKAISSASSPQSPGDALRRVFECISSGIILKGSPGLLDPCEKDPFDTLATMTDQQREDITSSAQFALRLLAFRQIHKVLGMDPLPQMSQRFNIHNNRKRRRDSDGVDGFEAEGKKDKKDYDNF
UniProt Q9NYG2: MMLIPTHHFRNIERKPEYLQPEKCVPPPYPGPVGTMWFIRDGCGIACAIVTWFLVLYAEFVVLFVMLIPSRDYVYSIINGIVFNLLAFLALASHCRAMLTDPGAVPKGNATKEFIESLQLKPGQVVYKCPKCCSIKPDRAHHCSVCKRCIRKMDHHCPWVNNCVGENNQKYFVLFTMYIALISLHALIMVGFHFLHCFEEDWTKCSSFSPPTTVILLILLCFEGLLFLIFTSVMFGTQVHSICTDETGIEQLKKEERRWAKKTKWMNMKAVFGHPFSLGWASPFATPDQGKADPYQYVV
UniProt P67809, whole entry, looked up: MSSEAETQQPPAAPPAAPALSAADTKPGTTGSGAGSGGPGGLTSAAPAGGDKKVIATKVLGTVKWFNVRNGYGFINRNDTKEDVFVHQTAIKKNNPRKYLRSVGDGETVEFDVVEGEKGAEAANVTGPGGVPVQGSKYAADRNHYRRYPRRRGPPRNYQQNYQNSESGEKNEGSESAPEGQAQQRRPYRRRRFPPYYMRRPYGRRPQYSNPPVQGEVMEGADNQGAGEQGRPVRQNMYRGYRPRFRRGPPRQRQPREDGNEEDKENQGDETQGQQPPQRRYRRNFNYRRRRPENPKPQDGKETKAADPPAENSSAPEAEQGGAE
UniProt Q96JP5: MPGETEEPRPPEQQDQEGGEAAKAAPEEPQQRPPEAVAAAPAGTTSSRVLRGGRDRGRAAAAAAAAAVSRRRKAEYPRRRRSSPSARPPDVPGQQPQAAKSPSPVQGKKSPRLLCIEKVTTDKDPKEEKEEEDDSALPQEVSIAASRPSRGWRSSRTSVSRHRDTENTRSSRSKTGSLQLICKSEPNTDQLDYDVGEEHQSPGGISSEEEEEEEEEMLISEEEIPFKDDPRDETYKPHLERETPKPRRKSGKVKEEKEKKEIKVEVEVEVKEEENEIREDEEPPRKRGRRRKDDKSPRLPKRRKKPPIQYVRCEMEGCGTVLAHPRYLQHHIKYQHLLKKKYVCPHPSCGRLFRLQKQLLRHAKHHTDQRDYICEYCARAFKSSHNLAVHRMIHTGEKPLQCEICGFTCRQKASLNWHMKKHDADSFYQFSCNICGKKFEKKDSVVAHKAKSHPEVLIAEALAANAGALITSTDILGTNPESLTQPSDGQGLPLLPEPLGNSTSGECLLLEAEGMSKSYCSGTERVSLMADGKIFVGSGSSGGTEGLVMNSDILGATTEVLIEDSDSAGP
UniProt Q86T24: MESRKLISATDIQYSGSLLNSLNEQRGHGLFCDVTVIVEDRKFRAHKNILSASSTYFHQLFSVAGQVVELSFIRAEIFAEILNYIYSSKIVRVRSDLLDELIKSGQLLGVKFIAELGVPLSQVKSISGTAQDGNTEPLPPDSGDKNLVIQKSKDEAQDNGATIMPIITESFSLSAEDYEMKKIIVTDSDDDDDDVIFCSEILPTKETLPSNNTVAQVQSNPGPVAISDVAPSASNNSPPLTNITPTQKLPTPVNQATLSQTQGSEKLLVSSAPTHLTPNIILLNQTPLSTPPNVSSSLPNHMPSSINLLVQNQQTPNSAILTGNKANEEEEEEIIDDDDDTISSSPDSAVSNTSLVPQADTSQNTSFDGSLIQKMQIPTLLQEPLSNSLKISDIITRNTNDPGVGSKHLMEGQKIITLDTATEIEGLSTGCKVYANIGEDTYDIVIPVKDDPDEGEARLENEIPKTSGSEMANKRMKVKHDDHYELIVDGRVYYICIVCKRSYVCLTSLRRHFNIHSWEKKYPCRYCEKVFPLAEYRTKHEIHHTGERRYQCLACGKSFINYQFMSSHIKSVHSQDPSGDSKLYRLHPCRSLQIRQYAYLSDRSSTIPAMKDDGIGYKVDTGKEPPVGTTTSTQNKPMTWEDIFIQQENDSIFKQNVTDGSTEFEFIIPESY
UniProt O75152: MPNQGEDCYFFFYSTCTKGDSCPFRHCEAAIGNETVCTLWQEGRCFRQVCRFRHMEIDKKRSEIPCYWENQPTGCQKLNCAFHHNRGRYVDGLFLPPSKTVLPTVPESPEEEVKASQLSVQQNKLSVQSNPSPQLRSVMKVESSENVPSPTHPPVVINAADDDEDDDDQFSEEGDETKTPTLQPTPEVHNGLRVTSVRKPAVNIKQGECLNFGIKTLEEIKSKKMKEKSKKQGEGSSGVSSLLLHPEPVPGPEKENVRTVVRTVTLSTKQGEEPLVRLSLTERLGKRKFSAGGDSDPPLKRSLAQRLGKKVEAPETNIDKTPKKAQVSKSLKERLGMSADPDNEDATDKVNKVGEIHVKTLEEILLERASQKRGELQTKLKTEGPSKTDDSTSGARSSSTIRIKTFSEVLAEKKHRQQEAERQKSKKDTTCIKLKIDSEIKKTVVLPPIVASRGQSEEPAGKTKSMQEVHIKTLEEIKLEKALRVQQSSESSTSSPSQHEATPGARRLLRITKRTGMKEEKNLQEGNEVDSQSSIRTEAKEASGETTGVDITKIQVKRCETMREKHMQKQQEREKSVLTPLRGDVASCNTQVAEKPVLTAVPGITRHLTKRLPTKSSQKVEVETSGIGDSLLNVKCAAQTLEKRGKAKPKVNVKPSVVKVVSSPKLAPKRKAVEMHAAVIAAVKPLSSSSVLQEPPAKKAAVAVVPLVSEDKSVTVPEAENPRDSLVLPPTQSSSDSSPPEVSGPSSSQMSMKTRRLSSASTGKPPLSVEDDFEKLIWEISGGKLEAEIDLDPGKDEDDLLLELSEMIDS
UniProt Q5BJH7: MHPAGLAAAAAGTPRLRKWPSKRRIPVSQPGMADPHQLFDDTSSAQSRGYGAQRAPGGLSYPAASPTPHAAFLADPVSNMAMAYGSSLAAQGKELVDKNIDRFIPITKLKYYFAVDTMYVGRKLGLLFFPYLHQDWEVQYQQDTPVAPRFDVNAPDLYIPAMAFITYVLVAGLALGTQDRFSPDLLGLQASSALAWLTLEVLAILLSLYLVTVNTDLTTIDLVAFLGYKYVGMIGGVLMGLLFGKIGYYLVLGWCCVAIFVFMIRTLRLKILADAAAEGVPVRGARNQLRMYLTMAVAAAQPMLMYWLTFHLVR
UniProt Q9HAV4: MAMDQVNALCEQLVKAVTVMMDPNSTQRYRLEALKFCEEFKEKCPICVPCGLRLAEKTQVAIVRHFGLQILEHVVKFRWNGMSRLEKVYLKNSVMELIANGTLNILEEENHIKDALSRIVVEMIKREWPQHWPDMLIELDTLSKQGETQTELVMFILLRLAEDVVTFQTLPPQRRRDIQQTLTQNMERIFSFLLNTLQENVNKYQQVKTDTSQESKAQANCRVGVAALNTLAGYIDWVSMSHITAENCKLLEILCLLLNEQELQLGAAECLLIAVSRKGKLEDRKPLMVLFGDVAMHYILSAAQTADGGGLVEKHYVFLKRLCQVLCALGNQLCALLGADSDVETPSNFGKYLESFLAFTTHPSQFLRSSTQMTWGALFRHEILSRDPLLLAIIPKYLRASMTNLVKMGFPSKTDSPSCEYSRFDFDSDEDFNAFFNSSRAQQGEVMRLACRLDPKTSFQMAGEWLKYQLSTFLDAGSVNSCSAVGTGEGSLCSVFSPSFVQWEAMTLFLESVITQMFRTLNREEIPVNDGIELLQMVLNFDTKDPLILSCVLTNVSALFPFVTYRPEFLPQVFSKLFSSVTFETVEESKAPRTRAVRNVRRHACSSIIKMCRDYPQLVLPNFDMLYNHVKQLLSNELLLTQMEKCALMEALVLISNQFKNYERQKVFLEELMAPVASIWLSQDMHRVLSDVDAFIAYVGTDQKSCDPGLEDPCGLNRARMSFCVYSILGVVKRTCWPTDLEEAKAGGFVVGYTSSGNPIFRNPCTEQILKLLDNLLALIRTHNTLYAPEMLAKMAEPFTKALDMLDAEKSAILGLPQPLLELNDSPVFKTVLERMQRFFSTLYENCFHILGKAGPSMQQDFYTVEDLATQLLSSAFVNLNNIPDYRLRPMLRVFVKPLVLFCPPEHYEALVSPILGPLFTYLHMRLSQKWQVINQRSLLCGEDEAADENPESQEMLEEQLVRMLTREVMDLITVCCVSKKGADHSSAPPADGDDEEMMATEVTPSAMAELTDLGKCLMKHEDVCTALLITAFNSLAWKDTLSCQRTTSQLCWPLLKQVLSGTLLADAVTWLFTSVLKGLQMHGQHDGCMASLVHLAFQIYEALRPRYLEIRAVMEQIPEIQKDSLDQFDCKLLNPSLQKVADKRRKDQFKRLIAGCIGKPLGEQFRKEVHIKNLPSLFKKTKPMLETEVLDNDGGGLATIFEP
UniProt P31946: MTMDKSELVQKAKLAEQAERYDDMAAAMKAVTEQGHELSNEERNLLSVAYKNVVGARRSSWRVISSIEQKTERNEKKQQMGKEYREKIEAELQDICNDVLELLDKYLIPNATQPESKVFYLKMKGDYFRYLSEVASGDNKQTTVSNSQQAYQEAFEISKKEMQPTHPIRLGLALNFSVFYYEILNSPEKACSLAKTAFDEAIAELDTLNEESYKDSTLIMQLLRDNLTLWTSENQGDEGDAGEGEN
UniProt Q9UGR2: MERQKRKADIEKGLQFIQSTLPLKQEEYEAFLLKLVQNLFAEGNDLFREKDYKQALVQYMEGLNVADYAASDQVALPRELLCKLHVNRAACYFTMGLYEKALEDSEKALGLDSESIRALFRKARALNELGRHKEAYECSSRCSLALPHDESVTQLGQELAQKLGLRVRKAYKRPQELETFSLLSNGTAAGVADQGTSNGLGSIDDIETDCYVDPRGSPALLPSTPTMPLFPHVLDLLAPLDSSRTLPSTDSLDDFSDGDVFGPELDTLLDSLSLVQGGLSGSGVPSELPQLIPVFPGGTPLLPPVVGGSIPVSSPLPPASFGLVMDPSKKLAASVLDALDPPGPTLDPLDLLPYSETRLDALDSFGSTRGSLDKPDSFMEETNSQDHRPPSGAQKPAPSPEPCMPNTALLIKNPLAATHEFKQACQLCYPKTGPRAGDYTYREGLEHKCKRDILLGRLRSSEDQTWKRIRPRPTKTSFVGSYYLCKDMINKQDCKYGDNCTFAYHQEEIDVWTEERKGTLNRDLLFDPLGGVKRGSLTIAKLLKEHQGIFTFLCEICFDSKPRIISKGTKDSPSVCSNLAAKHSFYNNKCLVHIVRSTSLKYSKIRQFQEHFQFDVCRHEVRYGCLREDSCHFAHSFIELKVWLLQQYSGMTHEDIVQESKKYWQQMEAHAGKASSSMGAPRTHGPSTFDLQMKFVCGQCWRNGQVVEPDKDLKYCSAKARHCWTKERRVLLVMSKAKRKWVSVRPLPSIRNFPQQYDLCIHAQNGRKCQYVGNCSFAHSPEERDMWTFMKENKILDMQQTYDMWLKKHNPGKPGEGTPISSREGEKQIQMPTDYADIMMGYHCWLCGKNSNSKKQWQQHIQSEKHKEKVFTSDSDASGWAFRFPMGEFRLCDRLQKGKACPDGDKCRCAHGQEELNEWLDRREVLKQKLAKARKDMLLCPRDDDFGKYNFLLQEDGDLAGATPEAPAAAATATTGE

[1] = compound: CCCS(=O)(=O)Nc1ccc(F)c(C(=O)c2c[nH]c3ncc(Cl)cc23)c1F
Method in brief: as §1

barasertib = compound: CCN(CCCOc1ccc2c(Nc3cc(CC(=O)Nc4cccc(F)c4)[nH]n3)ncnc2c1)CCOP(=O)(O)O [barasertib]
Method in brief: as §1

[2] = compound: CC[C@@H]1C(=O)N(C)c2cnc(Nc3ccc(C(=O)NC4CCN(C)CC4)cc3OC)nc2N1C1CCCC1
Method in brief: as §1

volasertib = compound: CC[C@@H]1C(=O)N(C)c2cnc(Nc3ccc(C(=O)N[C@H]4CC[C@H](N5CCN(CC6CC6)CC5)CC4)cc3OC)nc2N1C(C)C [volasertib]
Method in brief: as §1

[3] = compound: CCn1c(C(=O)N(C2CC2)C2CC2)cc2c3c(ncn3C)c(Nc3cc(C)n(C)n3)nc21
Method in brief: as §1

[4] = compound: CCn1cc(-c2ccnc3[nH]c(-c4cccc(CN(C)C)c4)cc23)c(-c2ccc(NC(=O)N(C)C)cc2)n1
Method in brief: as §1

[5] = compound: CN1CCC(CNc2ccc3ncc(-c4cccc(OC(F)(F)F)c4)n3n2)CC1
Method in brief: as §1

saracatinib = compound: CN1CCN(CCOc2cc(OC3CCOCC3)c3c(Nc4c(Cl)ccc5c4OCO5)ncnc3c2)CC1 [saracatinib]
Method in brief: as §1

sotrastaurin = compound: CN1CCN(c2nc(C3=C(c4c[nH]c5ccccc45)C(=O)NC3=O)c3ccccc3n2)CC1 [sotrastaurin]
Method in brief: as §1

alvocidib = compound: CN1CC[C@H](c2c(O)cc(O)c3c(=O)cc(-c4ccccc4Cl)oc23)[C@H](O)C1 [alvocidib]
Method in brief: as §1

Tubastatin A = compound: CN1CCc2c(c3ccccc3n2Cc2ccc(C(=O)NO)cc2)C1 [Tubastatin A]
Method in brief: as §1

[6] = compound: CNC(=O)C1=CC=CC=C1NC2=NC(=NC=C2Cl)NC3=C(C=C(C=C3)N4CCOCC4)OC
Method in brief: as §1

defactinib = compound: CNC(=O)c1ccc(Nc2ncc(C(F)(F)F)c(NCc3nccnc3N(C)S(C)(=O)=O)n2)cc1 [defactinib]
Method in brief: as §1

[7] = compound: CNc1nc(-c2ccc3c(N)n[nH]c3c2)cc(N2C[C@@H](C(=O)NC3CCCCC3)CC[C@H]2C)n1
Method in brief: as §1

encorafenib = compound: COC(=O)N[C@@H](C)CNc1nccc(-c2cn(C(C)C)nc2-c2cc(Cl)cc(NS(C)(=O)=O)c2F)n1 [encorafenib]
Method in brief: as §1

[8] = compound: COC(=O)[C@H](CCSC)NC(=O)C1=C(C=C(C=C1)NC[C@H](CS)N)C2=CC=CC=C2
Method in brief: as §1

alisertib = compound: COc1cc(Nc2ncc3c(n2)-c2ccc(Cl)cc2C(c2c(F)cccc2OC)=NC3)ccc1C(=O)O [alisertib]
Method in brief: as §1

[9] = compound: COc1cc2nc(-c3cc(F)ccc3O)nc(N[C@@H]3CNC[C@H]3C(C)(C)O)c2cc1OC
Method in brief: as §1

gefitinib = compound: COc1cc2ncnc(Nc3ccc(F)c(Cl)c3)c2cc1OCCCN1CCOCC1 [gefitinib]
Method in brief: as §1

Measured: log2 fold change

ZFR (UniProt Q96KR1)
inactive: vemurafenib 0.057 | [1] 0.027 | barasertib 0.011 | [2] 0.047 | volasertib -0.003 | [3] 0.039 | [4] 0.075 | [5] -0.005 | saracatinib 0.018 | sotrastaurin 0.006 | alvocidib 0.016 | Tubastatin A -0.031 | [6] -0.005 | defactinib -0.03 | [7] 0.02 | encorafenib 0.068 | [8] -0.085 | alisertib -0.018 | [9] -0.034 | gefitinib -0.031

ZDHHC3 isoform 2 (UniProt Q9NYG2)
inactive: vemurafenib -0.167 | [1] 0.022 | barasertib 0.035 | [2] 0.056 | volasertib -0.021 | [3] -0.062 | [4] -0.204 | [5] 0.053 | saracatinib 0.113 | sotrastaurin 0.041 | alvocidib 0.004 | Tubastatin A -0.015 | [6] -0.037 | defactinib 0.063 | [7] -0.079 | encorafenib 0.066 | [8] -0.058 | alisertib -0.021 | [9] -0.051 | gefitinib -0.031

YBX1 (UniProt P67809)
inactive: vemurafenib 0.011 | [1] 0.013 | barasertib -0.057 | [2] 0.073 | volasertib 0.015 | [3] -0.034 | [4] 0.124 | [5] -0.082 | saracatinib 0.033 | sotrastaurin 0.053 | alvocidib 0.069 | Tubastatin A 0.06 | [6] -0.022 | defactinib 0.001 | [7] 0.017 | encorafenib -0.022 | [8] -0.031 | alisertib -0.004 | [9] 0.012 | gefitinib -0.009

ZFP91 (UniProt Q96JP5)
inactive: vemurafenib -0.005 | [1] 0.029 | barasertib -0.009 | [2] 0.053 | volasertib -0.014 | [3] -0.056 | [4] 0.093 | [5] -0.111 | saracatinib -0.005 | sotrastaurin 0.008 | alvocidib 0.026 | Tubastatin A -0.079 | [6] 0 | defactinib 0.024 | [7] 0.082 | encorafenib 0.047 | [8] -0.041 | alisertib -0.009 | [9] -0.028 | gefitinib 0.028

ZBTB33 (UniProt Q86T24)
inactive: vemurafenib 0.01 | [1] -0.017 | barasertib -0.199 | [2] -0.002 | [3] 0 | [4] 0.034 | [5] -0.008 | saracatinib 0.033 | sotrastaurin 0.015 | alvocidib -0.028 | Tubastatin A -0.005 | [6] -0.178 | defactinib -0.062 | [7] 0.119 | encorafenib 0.018 | [8] -0.004 | alisertib -0.059 | [9] -0.307 | gefitinib 0.086
active: volasertib -0.673

ZGPAT (UniProt Q8N5A5)
inactive: vemurafenib 0.003 | [1] 0.027 | barasertib -0.016 | [2] 0.014 | volasertib 0.036 | [3] 0.005 | [4] 0.012 | [5] 0.013 | saracatinib 0.057 | sotrastaurin 0.073 | alvocidib -0.051 | Tubastatin A -0.133 | [6] -0.038 | defactinib 0.106 | [7] 0.009 | encorafenib 0.12 | [8] 0.042 | alisertib 0.022 | [9] 0.025 | gefitinib 0.009

YJU2 (UniProt Q9BW85)
inactive: vemurafenib 0.032 | [1] -0.01 | barasertib 0.004 | [2] 0.09 | volasertib 0.001 | [3] 0.015 | [4] -0.057 | [5] 0.021 | saracatinib 0.011 | sotrastaurin 0.018 | alvocidib -0.026 | Tubastatin A 0.008 | [6] -0.017 | defactinib -0.006 | [7] -0.017 | encorafenib 0.054 | [8] -0.034 | alisertib -0.048 | [9] -0.006 | gefitinib -0.024

ZC3H11A (UniProt O75152)
inactive: vemurafenib 0.104 | [1] 0.084 | barasertib 0.055 | [2] 0.03 | volasertib -0.022 | [3] 0 | [4] 0.283 | [5] -0.182 | saracatinib -0.016 | sotrastaurin 0.013 | alvocidib 0.098 | Tubastatin A -0.077 | [6] 0.076 | defactinib -0.066 | [7] -0.023 | encorafenib 0.045 | [8] 0.078 | alisertib 0.019 | [9] 0.09 | gefitinib 0.034

YIF1B (UniProt Q5BJH7)
inactive: vemurafenib -0.01 | [1] 0.023 | barasertib 0.02 | [2] -0.032 | volasertib 0.01 | [3] 0.034 | [4] -0.028 | [5] -0.071 | saracatinib 0.011 | sotrastaurin 0.012 | alvocidib 0.003 | Tubastatin A 0.156 | [6] -0.015 | defactinib 0.013 | [7] 0.029 | encorafenib 0.052 | [8] -0.023 | alisertib 0.054 | [9] 0.033 | gefitinib -0.002

Copied from above (four entries):
ZDHHC3 isoform 2 (UniProt Q9NYG2)
inactive: vemurafenib -0.167 | [1] 0.022 | barasertib 0.035 | [2] 0.056 | volasertib -0.021 | [3] -0.062 | [4] -0.204 | [5] 0.053 | saracatinib 0.113 | sotrastaurin 0.041 | alvocidib 0.004 | Tubastatin A -0.015 | [6] -0.037 | defactinib 0.063 | [7] -0.079 | encorafenib 0.066 | [8] -0.058 | alisertib -0.021 | [9] -0.051 | gefitinib -0.031

YBX1 (UniProt P67809)
inactive: vemurafenib 0.011 | [1] 0.013 | barasertib -0.057 | [2] 0.073 | volasertib 0.015 | [3] -0.034 | [4] 0.124 | [5] -0.082 | saracatinib 0.033 | sotrastaurin 0.053 | alvocidib 0.069 | Tubastatin A 0.06 | [6] -0.022 | defactinib 0.001 | [7] 0.017 | encorafenib -0.022 | [8] -0.031 | alisertib -0.004 | [9] 0.012 | gefitinib -0.009

ZFP91 (UniProt Q96JP5)
inactive: vemurafenib -0.005 | [1] 0.029 | barasertib -0.009 | [2] 0.053 | volasertib -0.014 | [3] -0.056 | [4] 0.093 | [5] -0.111 | saracatinib -0.005 | sotrastaurin 0.008 | alvocidib 0.026 | Tubastatin A -0.079 | [6] 0 | defactinib 0.024 | [7] 0.082 | encorafenib 0.047 | [8] -0.041 | alisertib -0.009 | [9] -0.028 | gefitinib 0.028

ZBTB33 (UniProt Q86T24)
inactive: vemurafenib 0.01 | [1] -0.017 | barasertib -0.199 | [2] -0.002 | [3] 0 | [4] 0.034 | [5] -0.008 | saracatinib 0.033 | sotrastaurin 0.015 | alvocidib -0.028 | Tubastatin A -0.005 | [6] -0.178 | defactinib -0.062 | [7] 0.119 | encorafenib 0.018 | [8] -0.004 | alisertib -0.059 | [9] -0.307 | gefitinib 0.086
active: volasertib -0.673

(continued)

XPO5 (UniProt Q9HAV4)
inactive: vemurafenib -0.006 | [1] 0.005 | barasertib 0.022 | [2] -0.028 | volasertib -0.062 | [3] 0.027 | [4] -0.043 | [5] -0.041 | saracatinib 0.011 | sotrastaurin 0.007 | alvocidib 0.025 | Tubastatin A -0.184 | [6] -0.014 | defactinib -0.002 | [7] -0.019 | encorafenib 0.021 | [8] 0.012 | alisertib -0.004 | [9] 0 | gefitinib 0.013

ZFAND2B (UniProt Q8WV99)
inactive: vemurafenib -0.051 | [1] 0.055 | barasertib -0.024 | [2] -0.045 | volasertib 0.08 | [3] 0.037 | [4] -0.242 | [5] 0.148 | saracatinib -0.085 | sotrastaurin -0.177 | alvocidib -0.069 | Tubastatin A 0.023 | [6] -0.005 | defactinib -0.009 | [7] 0.119 | encorafenib 0.048 | [8] -0.026 | alisertib 0.027 | [9] -0.111 | gefitinib 0.066

YARS2 (UniProt Q9Y2Z4)
inactive: vemurafenib -0.032 | [1] 0.105 | barasertib 0.041 | [2] -0.102 | volasertib -0.015 | [3] -0.003 | [4] -0.018 | [5] 0.075 | saracatinib -0.039 | sotrastaurin 0.043 | alvocidib -0.062 | Tubastatin A -0.074 | [6] 0.022 | defactinib 0.029 | [7] 0.003 | encorafenib 0.088 | [8] -0.024 | alisertib -0.06 | [9] 0.005 | gefitinib 0.028

XPO1 (UniProt O14980)
inactive: vemurafenib 0.015 | [1] 0.005 | barasertib 0.023 | [2] -0.055 | volasertib -0.026 | [3] 0.013 | [4] -0.05 | [5] 0.019 | saracatinib 0.033 | sotrastaurin 0.022 | alvocidib 0.005 | Tubastatin A -0.096 | [6] -0.011 | defactinib 0.016 | [7] -0.013 | encorafenib 0.034 | [8] -0.101 | alisertib 0.013 | [9] 0.023 | gefitinib -0.007

YWHAB (UniProt P31946)
inactive: vemurafenib 0.017 | [1] -0.013 | barasertib -0.025 | [2] 0.049 | volasertib 0.016 | [3] 0.001 | [4] 0.34 | [5] -0.073 | saracatinib 0.001 | sotrastaurin 0.022 | alvocidib 0.007 | Tubastatin A 0.02 | [6] 0.005 | defactinib -0.024 | [7] -0.01 | encorafenib -0.005 | [8] -0.044 | alisertib 0.068 | [9] 0.001 | gefitinib -0.032

ZFPM1 (UniProt Q8IX07)
inactive: vemurafenib 0.088 | [1] 0.007 | barasertib 0.031 | [2] -0.017 | volasertib 0.02 | [3] -0.042 | [4] -0.001 | [5] -0.021 | saracatinib 0.014 | sotrastaurin -0.009 | alvocidib 0.014 | Tubastatin A 0.024 | [6] -0.022 | defactinib 0 | [7] 0.007 | encorafenib 0.072 | [8] -0.009 | alisertib -0.011 | [9] 0.018 | gefitinib -0.006

ZC3H7B (UniProt Q9UGR2)
inactive: vemurafenib 0.031 | [1] 0.046 | barasertib 0.061 | [2] 0.022 | volasertib -0.033 | [3] -0.025 | [4] 0.03 | [5] -0.08 | saracatinib -0.002 | sotrastaurin 0.04 | alvocidib 0.004 | Tubastatin A -0.095 | [6] 0.006 | defactinib 0.092 | [7] -0.079 | encorafenib 0.06 | [8] -0.008 | alisertib 0.136 | [9] -0.067 | gefitinib -0.042

— the supplement of paper PMC10849652
